Results are given in words; binding and its absence hold for the method and conditions named. Binding seen in cells or lysates may run through a third protein. A yes stands for co-enrichment or nearness to the bait. Other partners may have been found. No binding means not detected with the bait. Sequences can lack the tags named with a protein.

Sequences of proteins named here, by UniProt entry; tags and fusion partners are left off. A change or cut given only in a name is not applied to a line headed by its entry.
UniProt Q9KN49: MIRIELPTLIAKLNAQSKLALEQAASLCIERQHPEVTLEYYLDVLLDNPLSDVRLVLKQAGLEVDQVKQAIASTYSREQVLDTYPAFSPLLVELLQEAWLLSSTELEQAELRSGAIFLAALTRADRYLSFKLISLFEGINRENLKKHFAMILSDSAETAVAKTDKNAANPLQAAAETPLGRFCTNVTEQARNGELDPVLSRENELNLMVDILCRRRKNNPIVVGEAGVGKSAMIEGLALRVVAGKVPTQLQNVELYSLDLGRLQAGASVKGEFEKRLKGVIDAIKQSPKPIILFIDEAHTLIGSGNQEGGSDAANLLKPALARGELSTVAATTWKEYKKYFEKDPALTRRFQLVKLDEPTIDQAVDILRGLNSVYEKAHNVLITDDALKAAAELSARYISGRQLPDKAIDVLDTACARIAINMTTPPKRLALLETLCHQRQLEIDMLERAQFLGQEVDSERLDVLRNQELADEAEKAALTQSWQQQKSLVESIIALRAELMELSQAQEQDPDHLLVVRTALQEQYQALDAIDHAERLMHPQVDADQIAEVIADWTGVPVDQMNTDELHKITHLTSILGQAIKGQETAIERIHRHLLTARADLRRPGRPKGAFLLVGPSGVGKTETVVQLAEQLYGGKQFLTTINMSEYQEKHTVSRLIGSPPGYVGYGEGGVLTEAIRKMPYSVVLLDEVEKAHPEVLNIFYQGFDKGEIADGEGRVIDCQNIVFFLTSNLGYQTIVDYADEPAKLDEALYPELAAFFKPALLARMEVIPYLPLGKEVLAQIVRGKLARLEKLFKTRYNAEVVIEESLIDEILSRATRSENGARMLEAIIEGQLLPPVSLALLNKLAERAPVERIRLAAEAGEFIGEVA
UniProt Q9KN44: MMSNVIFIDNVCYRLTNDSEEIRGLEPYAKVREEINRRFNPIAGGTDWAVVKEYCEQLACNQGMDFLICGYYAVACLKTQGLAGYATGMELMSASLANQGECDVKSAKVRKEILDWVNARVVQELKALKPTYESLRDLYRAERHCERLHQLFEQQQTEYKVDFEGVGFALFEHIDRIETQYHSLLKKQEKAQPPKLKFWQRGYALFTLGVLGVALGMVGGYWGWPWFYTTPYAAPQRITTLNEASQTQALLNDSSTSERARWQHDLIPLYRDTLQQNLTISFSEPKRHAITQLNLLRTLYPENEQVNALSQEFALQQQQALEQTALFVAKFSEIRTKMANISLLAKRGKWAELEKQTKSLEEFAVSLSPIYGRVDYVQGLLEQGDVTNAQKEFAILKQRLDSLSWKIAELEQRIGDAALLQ

To fix the notation:
T1: TssAVC, hemagglutinin (HA)-tagged bait (Vibrio cholerae) (UniProt Q9KN46)
T1 sequence: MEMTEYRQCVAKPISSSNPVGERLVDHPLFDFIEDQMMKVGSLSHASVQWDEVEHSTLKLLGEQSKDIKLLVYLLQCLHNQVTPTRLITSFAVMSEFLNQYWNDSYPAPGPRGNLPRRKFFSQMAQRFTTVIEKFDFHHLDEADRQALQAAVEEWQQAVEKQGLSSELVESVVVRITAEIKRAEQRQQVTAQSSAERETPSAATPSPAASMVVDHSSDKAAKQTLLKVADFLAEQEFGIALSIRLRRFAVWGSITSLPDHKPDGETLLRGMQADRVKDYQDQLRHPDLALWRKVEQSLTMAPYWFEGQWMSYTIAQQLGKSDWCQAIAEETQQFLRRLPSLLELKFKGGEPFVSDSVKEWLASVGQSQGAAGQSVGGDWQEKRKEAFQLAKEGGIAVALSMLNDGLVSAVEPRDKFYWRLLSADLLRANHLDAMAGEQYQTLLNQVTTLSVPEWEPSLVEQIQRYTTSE

B1: Hcp, tested in the pull-down (protein, UniProt P72350 1-172)
chain: MPTPCYISIEGQTQGLITAGACTADSIGDSFVEGHEDEMLVQQFDHVVTVPTDPQSGQPSGQRVHKPFKFTVALNKAVPLLYNALSSGEKLKTVELKWYRTSIEGKQENFFTTKLENASIVDIHCEMPHCQDPAKSDFTQNVTVSLSYRKITWDHVNAGTSGSDDWRKPIEA

In this assay the target is T1, TssAVC, hemagglutinin (HA)-tagged bait (Vibrio cholerae). As to the kind of experiment: affinity purification with mass spectrometry.
On to “ClpV, found in the pull-downs (from UniProt Q9KN49)”, for which the binding entry is “binds”. With “TagAVC, found in the pull-down with TssAVC-HA (from UniProt Q9KN44)” the entry was “binds”; with B1, “no binding”.

For the origin of these results see article PMC6745524, “Diverse roles of TssA‐like proteins in the assembly of bacterial type VI secretion systems” (The EMBO Journal, 2019).
